{"sequences": {"note": "By UniProt entry, the sequences of proteins in these tests, tags left out. Where a name states a change or a piece, a line headed by the entry shows the natural chain unless it says otherwise.", "UniProt P19793": "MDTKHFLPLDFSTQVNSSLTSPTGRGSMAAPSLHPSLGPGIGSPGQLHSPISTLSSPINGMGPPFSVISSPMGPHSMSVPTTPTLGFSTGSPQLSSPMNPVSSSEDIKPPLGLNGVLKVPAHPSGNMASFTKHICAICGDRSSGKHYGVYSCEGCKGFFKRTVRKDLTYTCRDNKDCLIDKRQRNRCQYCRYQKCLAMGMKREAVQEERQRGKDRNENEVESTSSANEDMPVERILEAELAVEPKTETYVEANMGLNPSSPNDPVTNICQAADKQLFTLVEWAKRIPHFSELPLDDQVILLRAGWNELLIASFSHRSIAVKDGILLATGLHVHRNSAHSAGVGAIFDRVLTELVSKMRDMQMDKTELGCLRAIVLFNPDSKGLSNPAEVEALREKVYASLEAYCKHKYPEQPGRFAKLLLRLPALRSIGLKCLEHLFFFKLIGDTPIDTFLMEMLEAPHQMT", "UniProt P37231": "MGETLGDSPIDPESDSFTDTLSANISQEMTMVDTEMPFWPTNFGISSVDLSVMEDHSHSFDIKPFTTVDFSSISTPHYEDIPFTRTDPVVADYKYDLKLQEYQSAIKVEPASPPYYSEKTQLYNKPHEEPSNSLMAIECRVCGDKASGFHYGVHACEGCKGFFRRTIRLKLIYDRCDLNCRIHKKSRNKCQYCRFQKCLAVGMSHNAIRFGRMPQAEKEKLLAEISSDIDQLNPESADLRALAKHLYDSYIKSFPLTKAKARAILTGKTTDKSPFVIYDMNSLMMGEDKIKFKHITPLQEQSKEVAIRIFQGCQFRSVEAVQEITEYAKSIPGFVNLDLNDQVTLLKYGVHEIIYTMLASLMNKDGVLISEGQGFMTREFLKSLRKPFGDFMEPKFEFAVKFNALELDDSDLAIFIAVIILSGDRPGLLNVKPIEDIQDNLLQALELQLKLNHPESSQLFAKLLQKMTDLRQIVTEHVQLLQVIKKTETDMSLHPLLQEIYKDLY", "UniProt P03372, whole entry, looked up": "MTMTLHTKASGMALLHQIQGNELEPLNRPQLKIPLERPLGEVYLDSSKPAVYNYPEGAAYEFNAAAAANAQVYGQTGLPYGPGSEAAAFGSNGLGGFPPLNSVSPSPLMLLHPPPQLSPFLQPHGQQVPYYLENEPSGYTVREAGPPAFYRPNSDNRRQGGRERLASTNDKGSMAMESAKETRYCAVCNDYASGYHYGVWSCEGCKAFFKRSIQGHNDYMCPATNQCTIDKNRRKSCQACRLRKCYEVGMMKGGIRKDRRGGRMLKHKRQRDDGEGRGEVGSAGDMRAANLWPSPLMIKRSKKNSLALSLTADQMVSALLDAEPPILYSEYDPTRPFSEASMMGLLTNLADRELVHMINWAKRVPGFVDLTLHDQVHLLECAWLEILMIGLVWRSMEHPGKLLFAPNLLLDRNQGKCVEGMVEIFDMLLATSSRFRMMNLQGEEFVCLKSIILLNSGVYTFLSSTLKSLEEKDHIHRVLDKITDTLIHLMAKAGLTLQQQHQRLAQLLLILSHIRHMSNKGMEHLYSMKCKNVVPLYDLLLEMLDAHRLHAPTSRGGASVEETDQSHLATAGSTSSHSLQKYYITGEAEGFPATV", "UniProt P06212, whole entry, looked up": "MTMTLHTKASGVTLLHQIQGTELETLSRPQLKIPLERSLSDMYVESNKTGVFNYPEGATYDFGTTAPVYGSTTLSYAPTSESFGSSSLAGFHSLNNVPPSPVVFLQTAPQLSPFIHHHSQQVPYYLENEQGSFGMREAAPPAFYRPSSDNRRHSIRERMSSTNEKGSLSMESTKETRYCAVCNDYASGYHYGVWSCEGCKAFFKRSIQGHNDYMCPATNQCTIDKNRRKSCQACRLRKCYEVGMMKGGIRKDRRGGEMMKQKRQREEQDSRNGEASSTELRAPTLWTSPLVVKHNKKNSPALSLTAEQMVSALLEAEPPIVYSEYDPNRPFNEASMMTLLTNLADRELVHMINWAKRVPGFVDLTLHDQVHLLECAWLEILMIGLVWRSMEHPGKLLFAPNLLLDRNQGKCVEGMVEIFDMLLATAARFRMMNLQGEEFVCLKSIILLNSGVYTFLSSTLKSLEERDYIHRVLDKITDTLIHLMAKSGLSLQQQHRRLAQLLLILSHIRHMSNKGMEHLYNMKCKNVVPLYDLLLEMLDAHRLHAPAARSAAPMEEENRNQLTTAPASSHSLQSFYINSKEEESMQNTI"}, "source": "PubChem BioAssay (EPA / NIEHS)", "key": {"[1]": {"molecular_target": "Retinoic acid receptor RXR-alpha (Homo sapiens) (UniProt P19793)", "test": "OT_NURR1_NURR1RXRa_0480: Odyssey Thera (OT) 8-hour HEK293T Protein Complementation Assay for Nurr1/retinoid X receptor (RXR) (AID 2283385)", "in_short": "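Compounds are applied to HEK293T cells carrying Nurr1 and RXRα linked to reporter fragments. After 8 h, fluorescence intensity reports heterodimer formation, with DMSO as baseline.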"}, "[2]": {"molecular_target": "Retinoic acid receptor RXR-alpha (Homo sapiens) (UniProt P19793)", "test": "OT_NURR1_NURR1RXRa_1440: Odyssey Thera (OT) 24-hour HEK293T Protein Complementation Assay for Nurr1/retinoid X receptor (RXR) (AID 2283386)", "in_short": "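Measured as fluorescence from a reconstituted split reporter, this 24 h HEK293T complementation assay scores compound-induced gain of Nurr1/RXRα association relative to DMSO.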"}, "[3]": {"molecular_target": "Peroxisome proliferator-activated receptor gamma (Homo sapiens) (UniProt P37231)", "test": "OT_PPARg_PPARgSRC1_0480: Odyssey Thera (OT) 8-hour Protein-Complementation Assay for Peroxisome Proliferator-activated Receptor Gamma / SRC-1 Co-activator (AID 2283387);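 also: nuclear to cytoplasmic split Venus YFP fluorescence ratio reporting PPARg SRC-1 interaction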", "in_short": "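Split-YFP (IFP1/IFP2) PPARg/SRC-1 reporter, HEK293T, 37 °C, 5% CO2; 8 h compound; formaldehyde fix + Draq5; high-content imaging, N/C ratio, ≥350 cells/image, positive direction vs DMSO.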"}, "[4]": {"molecular_target": "Estrogen receptor (Homo sapiens) (UniProt P03372)", "test": "OT_ERa_GFPERaERE_0480: Odyssey Thera (OT) 8-hour HeLa Transcription Induction Assay for Estrogen Receptor (AID 2283381; active = hit-call score of the fitted dose curve at least 0.9, where 1 is the maximum; inactive = score below 0.9)", "in_short": "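Cells (HeLa) receive compound; after 8 h, reporter fluorescence is imaged and quantified by high-content analysis. Gain-of-signal relative to DMSO gives the endpoint.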"}, "[5]": {"read-out": "Potassium channel subfamily K member 1 (KCNK1), KCNK1 (gene 3775)", "test": "LTEA_HepaRG_KCNK1: Life Technologies and Expression Analysis (LTEA) Assay for Potassium channel subfamily K member 1 (KCNK1) using HepaRG (AID 2283511; active = hit-call score of the fitted dose curve at least 0.9, where 1 is the maximum; inactive = score below 0.9)", "settings": "actives raise or lower the signal; mRNA level, 48 h", "in_short": "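Differentiated HepaRG cells, 48 h exposure in serum-free induction medium with 0.5% DMSO; 8 concentrations, half-log from 100 uM, duplicate. KCNK1 mRNA by qRT-PCR, normalized to ACTB, GAPDH, POLR2A; bidirectional fit vs DMSO.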"}, "TIMP1, TIMP1 (gene 7076)": {"read-out": "TIMP1, TIMP1 (gene 7076)", "test": "LTEA_HepaRG_TIMP1: Life Technologies and Expression Analysis (LTEA) Assay for TIMP1 using HepaRG (AID 2283534; active = hit-call score of the fitted dose curve at least 0.9, where 1 is the maximum; inactive = score below 0.9)", "settings": "actives raise or lower the signal; mRNA level, 48 h", "in_short": "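TIMP1 induction or repression in HepaRG cells after 48 h chemical exposure (eight concentrations, highest 100 uM), assessed by normalized qRT-PCR with bidirectional fitting to DMSO controls.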"}, "[6]": {"test": "ATG_M_06_XSP1: Attagene TRANS-FACTORIAL Multi-Species (XSP1) HepG2 Assay for M06 Transcription Factor (Internal Marker) (AID 2283790)", "in_short": "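Transfected HepG2 multi-reporter system treated 24 h in the presence of 3 nM 6-alpha-fluorotestosterone. The M06 internal marker transcript was quantified by RT-PCR with capillary electrophoresis as a background control, and gain of signal was scored versus DMSO.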"}, "[7]": {"test": "ATG_M_61_XSP1: Attagene TRANS-FACTORIAL Multi-Species (XSP1) HepG2 Assay for M61 Transcription Factor (Internal Marker) (AID 2283797)", "in_short": "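HepG2 cells transiently transfected with multiplexed GAL4-driven reporter units, dosed 24 h with 3 nM 6-alpha-fluorotestosterone present. Reporter mRNA quantified by RT-PCR, 6-FAM labelling, HpaI digestion and capillary electrophoresis; internal-marker background control, gain of signal versus DMSO.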"}, "[8]": {"test": "ATG_M_19_XSP1: Attagene TRANS-FACTORIAL Multi-Species (XSP1) HepG2 Assay for M19 Transcription Factor (Internal Marker) (AID 2283798)", "in_short": "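HepG2 cells transiently transfected with multiplexed GAL4-UAS reporter units, dosed 24 h with 3 nM 6-alpha-fluorotestosterone present for partial AR stimulation. Reporter mRNA measured by RT-PCR with capillary electrophoresis; gain-of-signal fitted relative to DMSO.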"}, "[9]": {"molecular_target": "Nuclear receptor subfamily 1 group I member 2 (Mus musculus) (UniProt O54915)", "test": "ATG_mPXR_XSP1: Attagene TRANS-FACTORIAL Multi-Species (XSP1) HepG2 Assay for mouse Pregnane X Receptor (PXR) (AID 2283803)", "in_short": "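Transiently transfected HepG2 cells expressing a receptor-Gal4 chimera drive a GAL4-UAS reporter; 3 nM 6-alpha-fluorotestosterone included. Reporter mRNA read 24 h post-dose by RT-PCR and capillary electrophoresis; gain of signal relative to DMSO.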"}, "[10]": {"molecular_target": "chicken Estrogen Receptor (ERa), ESR1 (gene 396099) (UniProt P06212)", "test": "ATG_chERa_XSP2: Attagene TRANS-FACTORIAL Multi-Species (XSP2) HepG2 Assay for chicken Estrogen Receptor (ERa) (AID 2283817);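 also: actives raise reporter signal above DMSO so AC50 reflects ER activation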", "in_short": "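Transiently transfected HepG2 cells expressing chimeric chicken ERa-GAL4 reporter units, dosed 24 h with 3 nM 6-alpha-fluorotestosterone and 1.5 nM norgestrel present. Reporter mRNA measured by RT-PCR and capillary electrophoresis; gain-of-signal fitted relative to DMSO.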"}, "[11]": {"test": "ATG_M_32_XSP2: Attagene TRANS-FACTORIAL Multi-Species (XSP2) HepG2 Assay for M19 Transcription Factor (Internal Marker) (AID 2283826)", "in_short": "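An internal background marker among multiplexed transfected reporters in HepG2 liver cells was measured 24 h after dosing. Androgen receptor stimulation came from 3 nM 6-alpha-fluorotestosterone and 1.5 nM norgestrel.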"}}, "note": "For some assays here: This list holds what a sample rich in hits left over. Results filed as inconclusive are left out. Only a part is listed here, and it is no random draw. The source holds several records for some structures; these can differ, active in one and inactive in another. Calls of active or inactive are those of the source. The calls were made as follows, unless noted: active = hit-call score of the fitted dose curve at least 0.9, where 1 is the maximum; inconclusive = response in the unintended direction; inactive = score below 0.9."}
{"smiles": "O=C1CCCCCN1", "values": [{"measurement": "outcome", "setting": "[1]", "result": "inactive"}, {"measurement": "outcome", "setting": "[2]", "result": "inactive"}]}
{"smiles": "CO[C@@H]1COCC[C@@H]1N[C@@H]1CC[C@@](C(=O)N2CCc3ncc(C(F)(F)F)cc3C2)(C(C)C)C1", "values": [{"measurement": "outcome", "setting": "[3]", "result": "inactive"}]}
{"smiles": "C#C[C@]1(O)CC[C@H]2[C@@H]3CCC4=CC(=O)CC[C@@H]4[C@H]3CC[C@@]21CC", "values": [{"measurement": "AC50", "setting": "[4]", "result": "active: 38.2 µM"}, {"measurement": "outcome", "setting": "[2]", "result": "inactive"}, {"measurement": "outcome", "setting": "[5]", "result": "inactive"}, {"measurement": "outcome", "setting": "TIMP1, TIMP1 (gene 7076)", "result": "inactive"}, {"measurement": "outcome", "setting": "[6]", "result": "inactive"}, {"measurement": "outcome", "setting": "[7]", "result": "inactive"}, {"measurement": "outcome", "setting": "[8]", "result": "inactive"}, {"measurement": "outcome", "setting": "[9]", "result": "inactive"}, {"measurement": "AC50", "setting": "[10]", "result": "active: 0.187 µM"}, {"measurement": "outcome", "setting": "[11]", "result": "inactive"}]}
{"smiles": "Cc1ccc(C(C)c2ccc(C)c(C)c2)cc1C", "values": [{"measurement": "outcome", "setting": "[3]", "result": "inactive"}]}
